This is an account of results in PMC7862700.

The list shows a part of the results, in another mix than the full data. At the low end of the ranking the order means little.

The target in the assay is T1, SPIC (UniProt Q8N5J4).
T1 sequence: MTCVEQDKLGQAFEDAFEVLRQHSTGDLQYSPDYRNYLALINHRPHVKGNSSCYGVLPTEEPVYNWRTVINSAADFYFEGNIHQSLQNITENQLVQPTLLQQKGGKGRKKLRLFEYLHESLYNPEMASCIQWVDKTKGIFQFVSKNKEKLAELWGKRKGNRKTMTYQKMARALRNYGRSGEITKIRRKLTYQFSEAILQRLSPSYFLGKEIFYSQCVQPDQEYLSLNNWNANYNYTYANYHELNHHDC
Briefly: DAPPL (digital affinity profiling via proximity ligation, sequencing). The settings on record: 10 mM Tris-HCl pH 7.5, 50 mM NaCl, 1 mM DTT, 4% glycerol, room temperature, 30 min; GST-TFs on glutathione beads, 16-mer random dsDNA library, 0.1% …; high values mean tight binding; double strand, one strand shown; scale: fold enrichment (6-mer frequency, TF over GST control).
Regarding TGGCCG, the binding signal was determined as 0.989.
Take TATGCT: the binding signal was 1.6.
The sequence GTAGCA came in with a binding signal of 1.16.
Under CCAACC stands 0.985; under TGTCCC, 1.26; under CTCCCT, 1.38.
Under CTTTAC stands 1.4.
To GTTGAC belongs 0.967; to ATGCTA, 1.23.
AGCAAA returned a binding signal of 0.905.
Under CCTATA stands 1.35.
As for CTGGGC, the binding signal stood at 0.903.
To AGTATT belongs 1.22.
To GATCTA belongs 1.01; to CCGACT, 1.53; to TTGTAG, 1.02.
Under AGCATC stands 0.972; under TCAGTT, 0.954.
For TGTCTT, the binding signal was 1.39.
For TCATCC, the binding signal turned out to be 1.39.
Under TCCGGG stands 1.63; under TCATGA, 1.07; under GTTTTA, 0.912.
Under CTAACT stands 1.31.
To GGATGT belongs 1.41; to ATCCGG, 2.35; to CCGCTT, 1.83.
On to ATAAGA, for which the binding signal came to 1.03.
Under GTATCA stands 1.03.
CCTTTG returned a binding signal of 1.38.
Under ACGCCT stands 1.25.
To CTATGC belongs 1.54; to ACGTAA, 1.12; to TCTCTC, 1.36.
The sequence GCTACA displayed a binding signal of 1.33.
In the case of CAAGAT, the binding signal amounted to 1.14.
To GACTTT belongs 1.21; to AACCGG, 1.4.
CTGTCC had a binding signal of 1.13.
